# In PubChem BioAssay AID192 (DTP/NCI, 2004):
# The list shows only some results of the screen, not a fair sample: it gathers tests that were run many times, whatever their T/C, doses with no T/C, and many T/C values between a quarter and a half above the control. Other doses and runs of a compound stand elsewhere. T/C gives the treated animals as a percentage of the vehicle group. Some doses have a count of surviving animals in place of a T/C: the source files T/C as zero there, which appears to mark a toxic dose or a test without result, not a measured value. Some doses without a T/C left all or most animals alive at the check, yet need not have been tolerated: survival well below the control is almost never listed, so the zero probably covers shortened survival too. Survivors were counted at the toxicity check, usually on the fifth day, unless a day is given; later deaths do not show. Schedules are NCI's codes, read here as Q, the interval in days (D) or hours (H), X, the number of doses. Some entries were tested several times; the values are given in rising order. Where survival is the endpoint, this PubChem deposit counts one and a half times the control or more as active, and values a quarter to a half above the control carry no call in these data; other NCI protocols may use other cut-offs.
# Test system: BDF1 mice, B16 melanoma ip, median survival T/C
# Assay: NCI In Vivo Anticancer Drug Screen. Data for tumor model B16 Melanoma (intraperitoneal) in B6D2F1 (BDF1) mice
# Conditions: T/C endpoint: median survival time, higher T/C = longer survival
# In short: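 Values are ratios of treated (T) to vehicle-control (C) measurements of survival or tumor size in tumor-bearing mice.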
# [1] = dose: 100.0 mg/kg/injection, schedule: Q01DX009 (ip), vehicle: Klucel (hydroxypropylcellulose) (HPC)
# [2] = dose: 80.0 mg/kg/injection, schedule: Q01DX009 (ip), vehicle: saline
# [3] = dose: 100.0 mg/kg/injection, schedule: Q01DX009 (ip), vehicle: saline with Tween-80
# [4] = dose: 200.0 mg/kg/injection, schedule: Q01DX009 (ip), vehicle: saline with Tween-80
# [5] = dose: 1.0 mg/kg/injection, schedule: Q01DX009 (ip), vehicle: Klucel (hydroxypropylcellulose) (HPC)
# [6] = dose: 400.0 mg/kg/injection, schedule: Q01DX009 (ip), vehicle: saline with Tween-80
smiles,measurement,setting,value
O=C1C(NCCO)=C(N2CC2)C(=O)C(NCCO)=C1N1CC1,T/C,"dose: 0.09 mg/kg/injection, schedule: Q01DX009 (ip), vehicle: saline",137 % of control
same,T/C,"dose: 0.18 mg/kg/injection, schedule: Q01DX009 (ip), vehicle: saline",144 % of control
same,survivor count,"dose: 0.75 mg/kg/injection, schedule: Q01DX009 (ip), vehicle: saline",10 of 10
same,survivor count,"dose: 1.5 mg/kg/injection, schedule: Q01DX009 (ip), vehicle: saline","7 of 10, 9 of 10, 10 of 10"
same,survivor count,"dose: 3.0 mg/kg/injection, schedule: Q01DX009 (ip), vehicle: saline",8 of 10 and 10 of 10
Brc1cc(Br)c(-c2c(Br)cc(Br)cc2Br)c(Br)c1,survivor count,"dose: 400.0 mg/kg/injection, schedule: Q01DX009 (ip), vehicle: Klucel (hydroxypropylcellulose) (HPC)",10 of 10
O=C1C=C(SCCO)C(=O)c2ccccc21,survivor count,"dose: 0.75 mg/kg/injection, schedule: Q01DX009 (ip), vehicle: saline with Tween-80",6 of 6
same,survivor count,"dose: 1.5 mg/kg/injection, schedule: Q01DX009 (ip), vehicle: saline with Tween-80",6 of 6
same,survivor count,"dose: 3.0 mg/kg/injection, schedule: Q01DX009 (ip), vehicle: saline with Tween-80",6 of 6
same,T/C,"dose: 22.5 micrograms/kg/injection, schedule: Q01DX009 (ip), vehicle: saline with Tween-80",135 % of control
same,survivor count,"dose: 37.5 micrograms/kg/injection, schedule: Q01DX009 (ip), vehicle: saline with Tween-80",6 of 6
same,survivor count,"dose: 75.0 micrograms/kg/injection, schedule: Q01DX009 (ip), vehicle: saline with Tween-80",6 of 6
CCOc1cc(C2=NNc3n[nH]c(=S)n3N2)ccc1O,survivor count,[1],10 of 10
CN(C)CC(CN1c2ccccc2Sc2ccccc21)N(C)C (configuration not stated),survivor count,"dose: 100.0 mg/kg/injection, schedule: Q01DX009 (ip), vehicle: saline",8 of 10
same,survivor count,"dose: 200.0 mg/kg/injection, schedule: Q01DX009 (ip), vehicle: saline",0 of 10
same,survivor count,"dose: 400.0 mg/kg/injection, schedule: Q01DX009 (ip), vehicle: saline",0 of 10
O=C1N(Br)C(=O)C(c2ccc(Cl)cc2)(c2ccc(Cl)cc2)N1Br,survivor count,"dose: 50.0 mg/kg/injection, schedule: Q01DX009 (ip), vehicle: Klucel (hydroxypropylcellulose) (HPC)",10 of 10
same,survivor count,[1],10 of 10
same,survivor count,"dose: 200.0 mg/kg/injection, schedule: Q01DX009 (ip), vehicle: Klucel (hydroxypropylcellulose) (HPC)",0 of 10
OCCNCCN1CCN(CCCN2c3ccccc3Sc3ccc(C(F)(F)F)cc32)CC1,survivor count,"dose: 3.12 mg/kg/injection, schedule: Q01DX009 (ip), vehicle: saline",10 of 10
same,survivor count,"dose: 35.0 mg/kg/injection, schedule: Q01DX009 (ip), vehicle: saline",8 of 10
same,survivor count,"dose: 55.0 mg/kg/injection, schedule: Q01DX009 (ip), vehicle: saline",5 of 10
same,survivor count,[2],0 of 10
C1CC2CCC3CCCC4CCC(C1)C2C34 (configuration not stated),survivor count,"dose: 12.5 mg/kg/injection, schedule: Q01DX009 (ip), vehicle: saline with Tween-80",10 of 10
same,survivor count,"dose: 50.0 mg/kg/injection, schedule: Q01DX009 (ip), vehicle: saline with Tween-80",10 of 10
same,survivor count,[3],10 of 10
same,survivor count,[4],10 of 10
CCC(C(C)N1CC(=O)NC(=O)C1)N1CC(=O)NC(=O)C1 (configuration not stated),T/C,"dose: 0.5 mg/kg/injection, schedule: Q01DX009 (ip), vehicle: Klucel (hydroxypropylcellulose) (HPC)",132 % of control
same,T/C,[5],140 % of control
same,survivor count,[5],10 of 10
same,survivor count,"dose: 2.0 mg/kg/injection, schedule: Q01DX009 (ip), vehicle: Klucel (hydroxypropylcellulose) (HPC)",10 of 10
same,survivor count,"dose: 4.0 mg/kg/injection, schedule: Q01DX009 (ip), vehicle: Klucel (hydroxypropylcellulose) (HPC)",10 of 10
same,T/C,"dose: 4.0 mg/kg/injection, schedule: Q04DX003 (ip), vehicle: Klucel (hydroxypropylcellulose) (HPC)",127 and 133 % of control
same,survivor count,"dose: 8.0 mg/kg/injection, schedule: Q01DX009 (ip), vehicle: Klucel (hydroxypropylcellulose) (HPC)",10 of 10
same,survivor count,"dose: 8.0 mg/kg/injection, schedule: Q04DX003 (ip), vehicle: Klucel (hydroxypropylcellulose) (HPC)",10 of 10
same,survivor count,"dose: 16.0 mg/kg/injection, schedule: Q04DX003 (ip), vehicle: Klucel (hydroxypropylcellulose) (HPC)",5 of 10 and 10 of 10
same,survivor count,"dose: 32.0 mg/kg/injection, schedule: Q04DX003 (ip), vehicle: Klucel (hydroxypropylcellulose) (HPC)",6 of 10
Cc1c(Cl)cccc1NC(=O)c1ccc([N+](=O)[O-])cc1,survivor count,[6],10 of 10
CCOP(=O)(N1CC1(C)C)N1CC1(C)C (configuration not stated),T/C,"dose: 50.0 mg/kg/injection, schedule: Q01DX009 (ip), vehicle: saline",136 % of control
same,survivor count,[2],10 of 10
same,survivor count,"dose: 120.0 mg/kg/injection, schedule: Q01DX009 (ip), vehicle: saline",10 of 10
CC(=O)Nc1ccc(C)c(Cl)c1,survivor count,[6],8 of 10
CC1=NN(c2ccccc2)C(=O)C1N=Nc1ccccc1S(=O)(=O)O (configuration not stated),survivor count,[3],10 of 10
same,survivor count,[4],10 of 10
CCCCCCCCCCCCCCCCCCOCCCCCCCCCCCCCCCCCC,survivor count,[4],10 of 10
C=C(C)C12CC(COC(=O)c3ccccc3)C34OC5(OC1C3C1OC1(CO)C(O)C1(O)C(OC(=O)c3ccccc3)C(C)C(C(C)CCCCCCC5O)C14)O2 (configuration not stated),survivor count,"dose: 15.0 micrograms/kg/injection, schedule: Q01DX009 (ip), vehicle: saline with Tween-80",10 of 10
Clc1cccc(/C=C2\c3cc(Cl)ccc3-c3c(Cl)cc(Cl)cc32)c1,survivor count,[3],6 of 6
